Library screening results

Sequences of proteins named here, by UniProt entry; tags and fusion partners are left off.
UniProt E9BF75, entry or part of it: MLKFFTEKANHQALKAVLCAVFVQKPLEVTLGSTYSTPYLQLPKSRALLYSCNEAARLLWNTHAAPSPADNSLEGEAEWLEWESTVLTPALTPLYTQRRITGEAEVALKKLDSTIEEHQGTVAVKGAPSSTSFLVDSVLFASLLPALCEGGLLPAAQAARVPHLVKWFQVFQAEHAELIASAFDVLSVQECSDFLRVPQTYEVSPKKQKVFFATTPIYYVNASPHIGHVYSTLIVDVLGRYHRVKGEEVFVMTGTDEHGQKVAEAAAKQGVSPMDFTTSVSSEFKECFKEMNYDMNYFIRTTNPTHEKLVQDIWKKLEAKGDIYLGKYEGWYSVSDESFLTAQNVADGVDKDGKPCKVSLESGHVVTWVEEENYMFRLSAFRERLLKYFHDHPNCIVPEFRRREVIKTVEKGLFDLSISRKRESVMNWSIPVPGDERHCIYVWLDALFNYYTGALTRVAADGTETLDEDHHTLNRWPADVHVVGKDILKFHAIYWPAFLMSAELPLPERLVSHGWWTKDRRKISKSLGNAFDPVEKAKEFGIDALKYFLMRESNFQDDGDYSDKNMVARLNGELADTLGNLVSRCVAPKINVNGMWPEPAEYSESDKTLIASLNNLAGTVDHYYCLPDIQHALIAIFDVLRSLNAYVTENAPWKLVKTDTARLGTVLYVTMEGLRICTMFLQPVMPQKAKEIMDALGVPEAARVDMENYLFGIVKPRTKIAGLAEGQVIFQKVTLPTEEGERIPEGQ

Data taken from ChEMBL document CHEMBL3988442, “University of Dundee, Small-Polar-MMV Screening Library” (2021).

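Primary screen of methionyl-tRNA synthetase; the read-out is not stated. Target: Methionyl-tRNA synthetase (putative), Leishmania donovani (UniProt E9BF75). The test concentration is not given. The values are filed as inhibition. About 68,000 compounds were tested under these conditions; 0.035% (about 24) showed 50% or more at least once.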

Results are percentages, as filed. The record does not define 0% and 100%; most values in the screen are far below 50% and negative numbers occur (in some assays of this library far below -100). This is an unselected part of the compounds tested.

CC(C)C(=O)N1CCN(Cc2csc(-c3ccccn3)n2)CC1 gave 8.488%. With Cc1cc(NCCSc2nccn2C)n2nc(C)c(C)c2n1 the screen gave -10.03%. CCOc1ncccc1C(=O)N1CCCC1Cn1cc(C)cn1 (stereo unspecified) gave 10.83%. For COc1ccccc1CN1CC(OC)CN(C(=O)CC(C)C)CC1=O (stereo unspecified) the result was 5.676%. Result for CCCc1noc(CCC(=O)N2CCCC2c2noc(C3CC3)n2)n1 (stereo unspecified) was 6.103%. For CCn1ncc(NC(=O)CCn2ncc3c(Cl)cccc32)c1C the result was -41.46%. Result for CN(Cc1cccc(C(N)=O)c1)Cc1nc2c(cnn2C)c(=O)[nH]1 was 17.71%. Result for CC(=O)N(Cc1noc(C)n1)C1CCN(Cc2cccc(C#N)c2)C1 (stereo unspecified) was 14.75%.

CC(=O)N1CCCC1c1nc(C)no1 (stereo unspecified) read 0.7059%. With CN1CCOC(C(=O)Nc2ccc3c(c2)nc(C(C)(C)C)n3C)C1 (stereo unspecified) the screen gave 7.125%. With CC(C)N(Cc1ccccn1)Cc1nc2c(cnn2C)c(=O)[nH]1 the screen gave 18.7%. With Cn1cccc1C(=O)N1C[C@@H]2COC[C@]2(CNS(C)(=O)=O)C1 the screen gave 12.77%. For Cc1ccc(NC(=O)Nc2c(O)oc3ccccc3c2=O)cc1C the result was 8.215%. c1cnn(Cc2nnc3n2CCCN(c2nccs2)C3)c1 gave 3.833%. For NC(=O)CC1CCN(C(=O)NCc2ccccc2-n2cccn2)CC1 the result was 18.18%. With CC(C)(C)CN1CCOC[C@H]1c1nc(-c2cccc(F)c2)c[nH]1 the screen gave 6.044%.

With COCCN1CCN(C(=O)C(c2cccc(F)c2)N(C)C)CC1 (stereo unspecified) the screen gave 15.5%. For CNC(=O)C(CC(C)C)NC(=O)c1cccc(-c2nc(C)cs2)c1 (stereo unspecified) the result was 3.125%. CN(c1ccncn1)C1CC2(CCN(C(=O)c3cncs3)C2)C1 (stereo unspecified) read 2.118%. With O=C(C1CCOCC1)N1CCC2(CC1)CC(Oc1ccccc1)CO2 (stereo unspecified) the screen gave 12.5%. With CC(C)(CNC(=O)NCCc1ccn(-c2ccccc2)n1)C(N)=O the screen gave 19.67%. N[C@H]1CC[C@@H](Nc2nccc(CCC(F)(F)F)n2)CC1 gave 16.43%. With CC1CCC(NC(=O)c2nn(C)cc2Br)CC1 (stereo unspecified) the screen gave -27.62%. With c1cnnc(N2CCCC2CNc2ncnc3sccc23)c1 (stereo unspecified) the screen gave 27.22%.

With O=C(O)C1(Cc2cc(-c3cccc(F)c3)no2)CCOCC1 the screen gave 13.36%. Result for Cn1nc(C(=O)N2CCSCC2)cc1NC(=O)c1ccco1 was 15.92%. For Cc1noc(C(C)C)c1C(=O)NS(=O)(=O)c1ccc2c(c1)OCCCO2 the result was 13.38%. With CC(C)c1nc2c(n1C)CCN(Cc1nc(-c3ccsc3)no1)C2 the screen gave 23.17%. Nc1ccnc(N2CCC(Cc3ccccc3Cl)(C(=O)O)CC2)n1 read 7.379%. For Cn1cc(N)c(-c2nnc3n2CCCC3)n1 the result was 5.676%. CCn1cnnc1C1CCN(C(=O)c2cc3c(s2)CCC3)CC1 read 10.8%. O=C(CC1CCCC1)N1CCN2C[C@@H](CO)[C@H](c3ccccc3)[C@H]2C1 gave 3.014%.

Result for COCC(=O)N1CCN(C(C)=O)C[C@@H]1C(=O)OC was -1.017%. CN(C)c1cccc(C(=O)N2CCn3c(nnc3C3CC3)C2)c1 gave 8.14%. Result for CCOc1cc(/C=C/c2ncc(C(=O)O)s2)ccc1O was 13.89%. With Cc1cc(C)c(CNC(=O)NCC(O)c2ccccc2F)c(=O)[nH]1 (stereo unspecified) the screen gave 24%. CCn1ccnc1CN1CCC(CNC(=O)c2ccc(C)nc2)C1 (stereo unspecified) read 14.17%. Cc1cccc(C2CCCN2S(=O)(=O)N(C)C)n1 (stereo unspecified) gave 6.824%. c1cn(CCc2c[nH]cn2)c(-c2cc(CN3CCCC3)cs2)n1 read 19.24%. Result for Cn1cnc(-c2nc(C(=O)NC3CC3)c3ccccn23)c1 was 6.723%.